PMC12501023
Results are given in words; binding and its absence hold for the method and conditions named. In cells and extracts the contact can be indirect. Some results given as binding are weak or reduced against the parent protein; the word gives no strength. Where a sequence is shown, tags or fusion partners need not be part of it.

Protein sequences, listed by entry. Tags and fused reporters are not part of them. Residues count along the entry.
UniProt Q9EQY0, residues 21-977: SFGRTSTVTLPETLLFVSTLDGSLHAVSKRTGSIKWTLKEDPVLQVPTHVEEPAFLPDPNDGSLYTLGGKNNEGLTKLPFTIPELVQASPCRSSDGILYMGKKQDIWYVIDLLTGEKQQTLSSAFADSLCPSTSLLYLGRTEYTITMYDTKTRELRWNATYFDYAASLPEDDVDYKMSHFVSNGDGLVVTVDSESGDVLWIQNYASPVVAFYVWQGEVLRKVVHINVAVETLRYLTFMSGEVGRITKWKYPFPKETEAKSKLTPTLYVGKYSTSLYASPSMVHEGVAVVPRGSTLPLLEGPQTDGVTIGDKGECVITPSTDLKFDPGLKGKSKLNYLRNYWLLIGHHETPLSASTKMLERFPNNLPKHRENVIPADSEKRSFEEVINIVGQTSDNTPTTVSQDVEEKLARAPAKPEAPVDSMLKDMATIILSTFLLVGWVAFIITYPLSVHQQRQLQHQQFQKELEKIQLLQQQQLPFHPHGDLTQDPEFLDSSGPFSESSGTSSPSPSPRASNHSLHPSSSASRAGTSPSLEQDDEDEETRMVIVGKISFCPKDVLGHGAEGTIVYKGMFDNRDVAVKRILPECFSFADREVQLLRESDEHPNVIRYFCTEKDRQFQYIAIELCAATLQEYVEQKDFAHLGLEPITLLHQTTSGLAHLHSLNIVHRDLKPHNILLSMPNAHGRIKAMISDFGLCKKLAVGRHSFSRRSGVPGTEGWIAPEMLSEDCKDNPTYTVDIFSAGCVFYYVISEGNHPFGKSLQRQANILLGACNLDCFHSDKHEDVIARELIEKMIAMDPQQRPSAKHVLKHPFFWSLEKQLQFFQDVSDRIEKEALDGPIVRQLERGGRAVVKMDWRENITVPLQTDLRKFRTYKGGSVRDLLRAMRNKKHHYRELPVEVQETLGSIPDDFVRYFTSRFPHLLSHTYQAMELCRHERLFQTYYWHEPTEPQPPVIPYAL

Molecular target: T1, STING-FLAG (UniProt Q3TBT3)
T1 sequence: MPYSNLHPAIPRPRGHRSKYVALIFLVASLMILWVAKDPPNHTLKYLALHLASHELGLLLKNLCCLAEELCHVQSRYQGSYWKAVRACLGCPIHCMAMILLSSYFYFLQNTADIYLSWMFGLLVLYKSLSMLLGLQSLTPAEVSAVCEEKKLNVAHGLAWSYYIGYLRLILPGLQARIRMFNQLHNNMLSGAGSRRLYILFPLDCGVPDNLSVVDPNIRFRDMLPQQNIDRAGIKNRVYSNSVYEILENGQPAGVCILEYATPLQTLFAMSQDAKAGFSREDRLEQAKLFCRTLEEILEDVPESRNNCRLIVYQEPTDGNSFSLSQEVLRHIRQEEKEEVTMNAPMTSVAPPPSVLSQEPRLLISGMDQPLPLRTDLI
Experiment: co-IP; immunoprecipitation of exogenous STING-FLAG from HEK293T cells transfected with STING and IRE1α plasmids, control IgG; lysis buffer 150 mM NaCl, 1 mM EDTA, 50 mM Tris-HCl, 0.5% NP-40, 10 mM NEM; antibody overnight at 4°C, Protein A/G PLUS-Agarose, five washes

HA-tagged IRE1α (from UniProt Q9EQY0 21-977)
binding: binds
